Source: PubChem BioAssay AID1259415 (National Center for Advancing Translational Sciences (NCATS), 2018)
Hit rate of the full screen: of about 410,000 compounds, about 18,000 (4.4%) were called active. The inconclusive results got no clear call from the source; some entries with a clear call stand among them for comparison. No stated cut-off is given here; in the data, active means activity change below about -60%; inconclusive means no clear call, values can overlap the other calls; inactive means above about -39%.

Experiment: qHTS Assay for inhibitors of the human cytomegalovirus (HCMV)
Details: HFF cells, HCMV-luciferase reporter, 72 h; at 57.5 µM; hits give low values
Procedure, shortened: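 Compounds were evaluated in HFFs infected with an HCMV luciferase reporter virus (MOI 1 PFU/cell). Luciferase in lysates collected 72 h post infection served as the replication measure.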
On the % scale 0 is the no-effect control and ±100 the full control effect.

SMILES | activity change, negative = inhibition
CCOc1ccccc1NC(=O)c1ccc(F)c(S(=O)(=O)N2CCN(c3ccc(F)cc3)CC2)c1 | inconclusive: -46.9%
COc1ccc(C(=O)Nc2nnc(Cc3ccc(OC)c(OC)c3)s2)cc1 | inactive: 16.4%
CC(C)Cc1nn2c(=O)cc(COC(=O)c3ccc(NC(=O)C4CCCCC4)cc3)nc2s1 | inactive: 1.11%
COc1ccccc1-n1nc(C(=O)O)c2ccccc2c1=O | inconclusive: -44.7%
Clc1ncnc2c1oc1ccccc12 | inactive: 146%
COc1cccc(C(=O)Oc2c(Sc3ccc(C)cc3)c(C)nn2C(C)(C)C)c1OC | inconclusive: -58.6%
CC1CCCCN1C(=O)C1CCCCN1S(=O)(=O)c1cccc([N+](=O)[O-])c1 (centres undefined) | inconclusive: -45%
CCc1ccc(NC(=S)N2CCN(S(=O)(=O)c3ccccc3)CC2)cc1 | inconclusive: -45.2%
CC(=O)N(C(C)=O)c1ncc2c([nH]c3ccccc32)c1C#N | active: -77%
Cc1ccc(/C=N/N2CCN(c3ccc(Cl)cc3)CC2)o1 | inconclusive: -48.5%
CCOC(=O)C1=CN(Cc2ccc(OC)cc2)C=C(C(=O)OCC)C1c1cccs1 | inconclusive: -51.1%
COc1ccc(NC(=O)c2cc(S(=O)(=O)N3CCCC3)ccc2OC)cc1 | inconclusive: -56.6%
Cc1cc(C)nc(SCc2nc3nc(C)cc(C)n3c2Br)n1 | inconclusive: -45.1%
C=CCN1C2CCCC1CC(NC(=S)Nc1cccc(OC)c1)C2 (centres undefined) | inconclusive: -56.7%
Cc1ccc2c(c1)-c1c(c(C(=O)N3CCN(c4cc(C)ccc4C)CC3)nn1C)CS2 | inconclusive: -57.3%
Cc1c(F)cccc1NS(=O)(=O)c1ccc(OCCNS(C)(=O)=O)cc1 | inconclusive: -46.1%
O=C(NC(c1ccc(Cl)cc1)c1cnccn1)C1CCN(Cc2cccc(C(F)(F)F)c2)CC1 (centres undefined) | inconclusive: -56.3%
Cc1ccc(Cl)cc1NC(=S)N(CCN(C)C)C(C)c1ccccn1 (centres undefined) | inconclusive: -58.4%
COc1ccccc1C(=O)Nc1ccc(N2CCN(C(C)=O)CC2)cc1 | inconclusive: -56.5%
Cc1cccc(NC(=O)CN2C(=O)C(c3ccc(F)cc3)=NC23CCCCCC3)c1 | inconclusive: -44%
COc1ccccc1C(=O)Nc1ccc(S(=O)(=O)Nc2nccs2)cc1 | inconclusive: -42.6%
CCOc1ccc(Oc2ccccc2NS(=O)(=O)c2ccc(CCC(=O)O)cc2)cc1 | active: -64.4%
Cc1cc2ccccn2c1C(=O)c1ccncc1 | inconclusive: -51.3%
Cc1ccc2nc(-c3ccc(Cl)s3)c(Nc3ccc4c(c3)OCCO4)n2c1 | inactive: 32.6%
COc1cccc(-n2c(SCc3ccc(F)cc3)nc3c([nH]c4ccccc43)c2=O)c1 | inactive: -22.5%
O=c1ccn([C@@H]2O[C@H](COS(=O)(=O)O)[C@@H](O)[C@H]2O)c(=O)[nH]1 | active: -61.8%
CC1(C)CC(=O)/C(=N/Nc2ccc(Cl)cc2)CO1 | inactive: -20.8%

SMILES | activity change, negative = inhibition
COc1ccc(-c2c(C)nn3c(N4CCCCCC4)cc(C)nc23)cc1OC | active: -61.4%
CC(C)NC(=O)COc1ccc(Cl)cc1Cl | inconclusive: -43.8%
O=S(=O)(Oc1ccccc1/C=N/n1cnnc1)c1ccccc1 | inconclusive: -42.7%
CCCCC1=CC2=CC(=O)C(C)(OC(=O)CC)C(=O)C2=CN1CCCCO (centres undefined) | inconclusive: -48.5%
CN(CC(=O)Nc1c(Cl)cccc1Cl)C(=O)c1ccccc1Cc1ccccc1 | inconclusive: -50.1%
O=S(=O)(c1ccc(Oc2ccc(S(=O)(=O)N3CCOCC3)cc2)cc1)N1CCOCC1 | active: -65.8%
COC(=O)[C@]1(C)N[C@H](c2ccc(-c3ccc(F)cc3)cc2)[C@@H]2C(=O)N(C)C(=O)[C@@H]21 | inactive: 9.26%
COc1ccc(OC)c(-c2noc(N3CCN(c4ccc(Cl)cc4)CC3)n2)c1 | inactive: -26.2%
O=C(N/C(=C/c1ccc(Cl)cc1)C(=O)N1CCOCC1)c1ccccc1 | active: -78%
CCOc1ccc(NCc2cccn2-c2nnc(N3CCC(C(=O)NCCCN4CC(C)CC(C)C4)CC3)s2)cc1 (centres undefined) | active: -85.3%
CN(C)CC(C)(C)CNCc1cc(=O)oc2ccc3ccccc3c12 | inconclusive: -47.5%
Brc1ccc(CN2CCCc3nc(-c4ccccc4)ccc32)cc1 | active: -80.7%
Cc1nc(C(=O)Nc2ccc(Cl)cc2)sc1C1(C)CC(c2cccc([N+](=O)[O-])c2)=NO1 (centres undefined) | inconclusive: -56.9%
CC(C)(Cc1ccccc1)NC(=O)C(=O)c1cn(CC(=O)N2CCOCC2)c2ccccc12 | inconclusive: -52.1%
Cc1ccc(S(=O)(=O)N2CCN(CCNC(=O)C(=O)Nc3ccc(F)cc3)CC2)cc1 | active: -67.3%
Cc1cc(NC(=O)Nc2nnc(N3CCCCCC3)s2)ccc1Br | inactive: 4.37%
CCOc1ccccc1N(CC(=O)NCc1ccco1)C(=O)CCC(=O)Nc1nccs1 | inactive: -24.9%
CCN(CC)CCCNC(=O)CCC(=O)NNc1nc2ccccc2c2nc(C)nn12 | inconclusive: -55.6%
O=C(O)CNC(=O)c1ccc(NC(=O)/C(=C/c2cccc([N+](=O)[O-])c2)NC(=O)c2ccco2)cc1 | inactive: -10.8%
COc1ccc(-n2cnc3c(sc4nccc(N(C)C)c43)c2=O)cc1 | inconclusive: -50.8%
O=S(=O)(c1ccccc1)c1nc(NCc2ccccc2)sc1Cl | active: -70.3%
COc1ccc(C(C(=O)Nc2ccc(F)cc2)N(C(=O)Cn2nnc3ccccc32)C2CC2)cc1 (centres undefined) | inactive: -12.1%
COc1ccccc1Nc1nc(N)nc(CCl)n1 | inconclusive: -57.7%
CCCCNC(=S)Nc1cc([N+](=O)[O-])ccc1C | inconclusive: -45.9%
CCN(CC)c1ccc(/C=N/NC(=S)NCc2ccco2)cc1 | inconclusive: -57.9%
Cc1nn(C)cc1C(C(=O)NC1CCCCC1)N(Cc1ccc(F)cc1)C(=O)c1cnccn1 (centres undefined) | inconclusive: -49.2%
COc1ccc(NC(=O)c2nc[nH]c2C(=O)N[C@H](C)c2ccccc2)cc1 | inconclusive: -50.2%

Two of the compounds above, as labelled records:
CCCCNC(=S)Nc1cc([N+](=O)[O-])ccc1C
  activity change, negative = inhibition: inconclusive: -45.9%
CCN(CC)c1ccc(/C=N/NC(=S)NCc2ccco2)cc1
  activity change, negative = inhibition: inconclusive: -57.9%
